From patent publication US20250154123A1, “COOLING COMPOUNDS AND COMPOSITIONS” (V. MANE FILS, priority 2022, published 2025)
Some results were stated once for a whole list of compounds, not compound by compound.

The chains behind the UniProt entries cited, without tags or fusion partners.
UniProt Q7Z2W7, whole entry: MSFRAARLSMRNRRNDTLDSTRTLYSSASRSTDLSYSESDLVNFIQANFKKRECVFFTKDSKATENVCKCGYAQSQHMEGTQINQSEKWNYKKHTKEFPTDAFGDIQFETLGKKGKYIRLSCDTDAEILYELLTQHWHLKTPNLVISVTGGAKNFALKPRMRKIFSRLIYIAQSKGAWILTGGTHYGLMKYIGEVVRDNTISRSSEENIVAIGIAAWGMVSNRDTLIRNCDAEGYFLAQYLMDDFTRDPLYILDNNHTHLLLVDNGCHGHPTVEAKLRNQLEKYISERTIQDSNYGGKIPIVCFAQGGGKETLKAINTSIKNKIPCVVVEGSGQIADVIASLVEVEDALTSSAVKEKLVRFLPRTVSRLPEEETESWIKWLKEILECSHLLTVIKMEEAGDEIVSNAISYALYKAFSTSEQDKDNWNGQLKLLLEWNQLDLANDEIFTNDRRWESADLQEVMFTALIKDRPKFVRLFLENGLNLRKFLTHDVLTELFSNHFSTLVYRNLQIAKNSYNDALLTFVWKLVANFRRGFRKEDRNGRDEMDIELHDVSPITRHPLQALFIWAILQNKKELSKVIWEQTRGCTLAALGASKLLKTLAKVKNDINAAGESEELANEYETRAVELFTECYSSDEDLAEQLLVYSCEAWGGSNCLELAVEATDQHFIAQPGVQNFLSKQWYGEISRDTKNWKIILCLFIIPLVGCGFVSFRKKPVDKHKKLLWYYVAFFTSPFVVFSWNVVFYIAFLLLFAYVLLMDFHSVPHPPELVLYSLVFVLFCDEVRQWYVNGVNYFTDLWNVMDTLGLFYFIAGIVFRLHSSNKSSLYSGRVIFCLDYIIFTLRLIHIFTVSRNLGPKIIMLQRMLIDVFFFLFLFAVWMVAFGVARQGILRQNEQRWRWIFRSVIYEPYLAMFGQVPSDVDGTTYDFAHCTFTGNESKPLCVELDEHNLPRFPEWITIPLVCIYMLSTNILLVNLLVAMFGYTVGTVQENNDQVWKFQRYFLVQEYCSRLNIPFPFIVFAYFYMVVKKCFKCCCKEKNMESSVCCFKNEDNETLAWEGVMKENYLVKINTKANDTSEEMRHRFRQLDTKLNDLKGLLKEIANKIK

molecular target: T1, hTRPM8 ion channel (Homo sapiens, UniProt Q7Z2W7); experiment: Primary in vitro screening on hTRPM8 (CHO-KJ cells, FLUO-8 calcium fluorometry, relative to icilin); format: cell-based; settings: Table 1
T1 construct: expressed in transfected cells; host or cells: CHO-KJ cells [sic]
Description: The compounds were evaluated in vitro on CHO-KJ cells expressing the gene encoding the hTRPM8 ion channel (Table 1). Channel activation is determined by fluorometric measurement of […] calcium using FLUO-8. The activity of the compounds was measured relative to icilin (known hTRPM8 agonist).

Activity on hTRPM8 (in words), active on hTRPM8:
CC(C)[C@@H]1CC[C@@H](C)CC1(CO)CO [Compound 1, ((2S,5R)-2-isopropyl-5-methylcyclohexane-1,1-diyl)dimethanol]
CC1OCC2(CO1)C[C@H](C)CC[C@H]2C(C)C (stereo partly drawn) [Compound 2, (7S,1OR)-7-isopropyl-3,10-dimethyl-2,4-dioxaspiro[5.5]undecane]
CC(C)[C@@H]1CC[C@@H](C)CC12COC(C)(C)OC2 [Compound 3, (7S,1OR)-7-isopropyl-3,3,10-trimethyl-2,4-dioxaspiro[5.5]undecane]
CCC1OCC2(CO1)C[C@H](C)CC[C@H]2C(C)C (stereo partly drawn) [Compound 4, (7S,1OR)-3-ethyl-7-isopropyl-10-methyl-2,4-dioxaspiro[5.5]undecane]
COc1cc(C2OCC3(CO2)C[C@H](C)CC[C@H]3C(C)C)ccc1O (stereo partly drawn) [Compound 5, 4-((7S,10R)-7-isopropyl-10-methyl-2,4-dioxaspiro[5.5]undecan-3-yl)-2-methoxyphenol]
CC(C)[C@@H]1CC[C@@H](C)CC12COCOC2 [Compound 6, (7S,1OR)-7-isopropyl-10-methyl-2,4-dioxaspiro[5.5]undecane]
